Experimental data published in article PMC11894413.
Results are given in words; binding and its absence hold for the method and conditions named. Some entries that bind do so weakly or less than the wild type. Each block holds one binder with its values, some of them ahead of it.

Tests used:
Experiment in all cases: cryo-EM structure; purified yeast TRiC, 1 mg/ml, with 1 mM ADP and 5 mM MgCl2, 15 min at 30 °C before freezing; five conformational states S1-S5 (closed to open) from one sample; contacts differ between the states; both purified
Conditions in all cases: remark: other sources report otherwise
[1] = molecular target: T1, CCT4 subunit of yeast TRiC/CCT (yeast), P39078
T1 chain: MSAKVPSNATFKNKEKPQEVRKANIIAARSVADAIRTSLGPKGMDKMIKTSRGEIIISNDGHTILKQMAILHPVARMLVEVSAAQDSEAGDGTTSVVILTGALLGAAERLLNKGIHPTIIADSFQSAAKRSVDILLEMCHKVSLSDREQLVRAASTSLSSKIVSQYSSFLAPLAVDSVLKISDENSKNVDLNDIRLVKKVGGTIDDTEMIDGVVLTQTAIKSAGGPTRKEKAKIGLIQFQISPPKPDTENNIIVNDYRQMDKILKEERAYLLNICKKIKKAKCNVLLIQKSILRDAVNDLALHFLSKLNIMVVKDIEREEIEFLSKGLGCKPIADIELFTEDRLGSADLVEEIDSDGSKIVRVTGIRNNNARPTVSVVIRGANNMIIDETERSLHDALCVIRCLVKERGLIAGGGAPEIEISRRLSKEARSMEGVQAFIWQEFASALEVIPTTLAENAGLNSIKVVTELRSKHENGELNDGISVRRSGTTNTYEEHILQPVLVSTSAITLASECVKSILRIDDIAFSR

[2] = molecular target: T2, CCT7 subunit of yeast TRiC/CCT (yeast), P42943
T2 chain: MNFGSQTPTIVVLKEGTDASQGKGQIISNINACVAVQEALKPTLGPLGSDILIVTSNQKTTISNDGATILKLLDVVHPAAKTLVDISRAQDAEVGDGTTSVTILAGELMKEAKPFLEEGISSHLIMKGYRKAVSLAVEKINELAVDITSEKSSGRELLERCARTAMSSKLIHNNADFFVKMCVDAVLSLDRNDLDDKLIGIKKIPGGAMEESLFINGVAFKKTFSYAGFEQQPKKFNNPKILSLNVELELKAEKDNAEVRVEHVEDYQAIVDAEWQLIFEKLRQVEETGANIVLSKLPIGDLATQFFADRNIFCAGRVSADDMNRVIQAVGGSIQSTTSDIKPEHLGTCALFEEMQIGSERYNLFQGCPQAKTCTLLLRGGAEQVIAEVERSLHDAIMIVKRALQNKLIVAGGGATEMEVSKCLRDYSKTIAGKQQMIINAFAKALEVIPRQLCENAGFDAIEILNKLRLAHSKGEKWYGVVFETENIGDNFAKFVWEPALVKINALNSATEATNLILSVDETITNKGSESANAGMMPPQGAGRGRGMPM

[3] = molecular target: CCT6 subunit of yeast TRiC/CCT (yeast), P39079
[4] = molecular target: CCT1 subunit of yeast TRiC/CCT (yeast), P12612
[5] = molecular target: T3, CCT8 subunit of yeast TRiC/CCT (yeast), P47079
T3 chain: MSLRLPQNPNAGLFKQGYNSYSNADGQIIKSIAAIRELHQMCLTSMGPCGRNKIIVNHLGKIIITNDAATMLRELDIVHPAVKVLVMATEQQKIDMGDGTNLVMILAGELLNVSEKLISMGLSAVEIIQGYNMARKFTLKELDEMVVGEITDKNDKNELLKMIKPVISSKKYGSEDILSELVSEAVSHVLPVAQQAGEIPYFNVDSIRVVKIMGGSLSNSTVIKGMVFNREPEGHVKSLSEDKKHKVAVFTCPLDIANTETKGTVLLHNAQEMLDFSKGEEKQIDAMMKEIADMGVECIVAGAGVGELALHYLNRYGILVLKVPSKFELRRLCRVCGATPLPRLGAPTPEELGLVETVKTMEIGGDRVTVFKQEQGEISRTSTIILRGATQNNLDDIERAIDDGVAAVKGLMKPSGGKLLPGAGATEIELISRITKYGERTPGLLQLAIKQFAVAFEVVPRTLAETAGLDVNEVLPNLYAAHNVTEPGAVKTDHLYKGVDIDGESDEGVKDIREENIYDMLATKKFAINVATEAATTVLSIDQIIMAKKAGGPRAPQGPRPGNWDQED

- binding [1]: binds
- binding [2]: binds
B1: CCT5 subunit of yeast TRiC/CCT, P40413 1-562 (protein)
chain: MAARPQQPPMEMPDLSNAIVAQDEMGRPFIIVKDQGNKKRQHGLEAKKSHILAARSVASIIKTSLGPRGLDKILISPDGEITITNDGATILSQMELDNEIAKLLVQLSKSQDDEIGDGTTGVVVLASALLDQALELIQKGIHPIKIANGFDEAAKLAISKLEETCDDISASNDELFRDFLLRAAKTSLGSKIVSKDHDRFAEMAVEAVINVMDKDRKDVDFDLIKMQGRVGGSISDSKLINGVILDKDFSHPQMPKCVLPKEGSDGVKLAILTCPFEPPKPKTKHKLDISSVEEYQKLQTYEQDKFKEMIDDVKKAGADVVICQWGFDDEANHLLLQNDLPAVRWVGGQELEHIAISTNGRIVPRFQDLSKDKLGTCSRIYEQEFGTTKDRMLIIEQSKETKTVTCFVRGSNKMIVDEAERALHDSLCVVRNLVKDSRVVYGGGAAEVTMSLAVSEEADKQRGIDQYAFRGFAQALDTIPMTLAENSGLDPIGTLSTLKSKQLKEKISNIGVDCLGYGSNDMKELFVVDPFIGKKQQILLATQLCRMILKIDNVIISGKDEY

- binding [3]: binds
B2: CCT8 subunit of yeast TRiC/CCT, P47079 1-568 (protein)
chain: T3 chain

- binding [4]: binds
B3: CCT4 subunit of yeast TRiC/CCT, P39078 1-528 (protein)
chain: T1 chain

- binding [5]: binds
B4: CCT7 subunit of yeast TRiC/CCT, P42943 1-550 (protein)
chain: T2 chain
